Assay results as given in PubChem BioAssay AID1671190 (National Center for Advancing Translational Sciences (NCATS), 2021).
Hit rate of the full screen: of about 580,000 compounds, about 6,100 (1.1%) were called active. Inconclusive means that the source gave no clear call. Such entries were picked first, then a sample of the others. Calls follow the shape of the dose curve; as a rule, active = well fitted inhibition curve with a large enough effect; inconclusive = small, poorly fitted or top-dose-only effect, or another doubt; inactive = no such curve, though single readings can be large or run the other way. Potencies beside an inconclusive call are fits to weak or partial responses and may not hold up.

By UniProt entry, the sequences of proteins in these tests, tags left out.
UniProt P18054, whole entry, looked up: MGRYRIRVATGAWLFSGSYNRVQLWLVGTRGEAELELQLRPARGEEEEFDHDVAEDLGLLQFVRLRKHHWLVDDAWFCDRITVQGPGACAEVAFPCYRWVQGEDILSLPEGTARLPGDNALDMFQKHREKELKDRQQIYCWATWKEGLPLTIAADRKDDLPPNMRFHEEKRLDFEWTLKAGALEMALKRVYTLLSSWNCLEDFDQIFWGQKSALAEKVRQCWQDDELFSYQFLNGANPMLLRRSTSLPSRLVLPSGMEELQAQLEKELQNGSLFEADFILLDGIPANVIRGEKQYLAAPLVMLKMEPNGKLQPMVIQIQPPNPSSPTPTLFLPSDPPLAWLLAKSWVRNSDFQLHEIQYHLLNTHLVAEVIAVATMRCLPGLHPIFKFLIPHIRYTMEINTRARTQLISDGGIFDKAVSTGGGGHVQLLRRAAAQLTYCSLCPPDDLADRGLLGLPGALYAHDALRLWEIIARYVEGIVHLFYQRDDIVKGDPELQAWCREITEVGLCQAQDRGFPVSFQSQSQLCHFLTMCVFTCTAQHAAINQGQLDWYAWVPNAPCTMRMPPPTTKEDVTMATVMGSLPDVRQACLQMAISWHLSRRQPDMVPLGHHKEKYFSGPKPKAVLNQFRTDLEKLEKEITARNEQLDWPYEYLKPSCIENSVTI

molecular target: Polyunsaturated fatty acid lipoxygenase ALOX12 (Homo sapiens) (UniProt P18054); assay: Primary qHTS assay for inhibitors of human arachidonate 12S-lipoxygenase (ALOX12): Round 2; settings: purified 12hLO, xylenol orange hydroperoxide absorbance; activity change, negative = inhibition: at 108 µM (top of the series) unless noted
Method in brief: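 Purified human 12hLO (150 nM final) in 25 mM Hepes, 0.01% Triton X-100, pH 7.0 was preincubated 15 min at room temperature with compound. Then 40 uM arachidonic acid was added, 30 min. Hydroperoxide was read by Fe-XO absorbance ratio 573/405 nm.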
% is scaled to controls: 0 for no effect and ±100 for the full control effect; potency is read from the fitted curve at half-maximal effect.

Row | SMILES | Potency | activity change, negative = inhibition
1 | O=C(NC1CCCC1)C(c1ccc(F)cc1)N(Cc1ccc(Cl)cc1)C(=O)CCl (stereo not drawn) | inconclusive: 44.7 µM [inhibitor, partial curve, poor fit] | 
2 | Cc1cccc(N2C(S)=C(C#N)C(=O)NC2c2ccco2)c1 (stereo not drawn) |  | inactive: -34%
3 | COc1ccc(-c2noc([C@@H]3CCCN3C(=O)CCCc3ccccc3)n2)cc1 |  | inactive: 4.26%
4 | NC(=S)N=Nc1c(O)cc(O)c2[nH]c(=O)ccc12 | inconclusive: 20 µM [inhibitor, partial curve, poor fit] | 
5 | CN(CC1CCN(CCc2ccc(Cl)cc2)CC1)C(=O)c1ccccc1C#N | inconclusive: 28.2 µM [inhibitor, full curve] | 
6 | O=C(COc1ccc(S(=O)(=O)N2CCCC2)cc1)NCCC1=CCCCC1 | inconclusive: 39.8 µM [inhibitor, partial curve, poor fit] | 
7 | O=C(O)c1c2c(nc3ccccc13)/C(=C/c1ccccc1[N+](=O)[O-])CCC2 | inconclusive: 31.6 µM [inhibitor, partial curve, poor fit] | 
8 | COc1cc(OC)c(C(=O)OCc2ccccc2Br)cc1OC | inconclusive: 11.2 µM [inhibitor, full curve, poor fit] | 
9 | O=C(CSc1nc2ccccc2o1)Nc1cccc2ccccc12 | inconclusive: 44.7 µM [inhibitor, partial curve, poor fit] | 
10 | c1ccc(Nc2cc(-c3ccoc3)ncn2)cc1 | inconclusive: 35.5 µM [inhibitor, partial curve] | 
11 | O=C/C(=C\Nc1ccc(Br)cc1)c1nc2ccccc2o1 |  | inactive: -10.1%
12 | O=C(c1ccco1)[C@@H]1[C@@H]2C(=O)N(c3ccccc3)C(=O)[C@@H]2C2c3ccccc3C=CN21 (stereo partly drawn) | inconclusive: 8.91 µM [inhibitor, full curve] | 
13 | C=CCN(CC(O)c1cccc([N+](=O)[O-])c1)C(C)CCc1ccccc1 (stereo not drawn) | inconclusive: 31.6 µM [inhibitor, partial curve, poor fit] | 
14 | C[C@@H](OC(=O)c1[nH]cnc1C(=O)NCc1ccc(CNC(=O)OC(C)(C)C)cc1)c1ccccc1 | inconclusive: 28.2 µM [inhibitor, partial curve, poor fit] | 
15 | Cc1ccc(C(O)CNC(=O)Nc2ccccc2)cc1 (stereo not drawn) | inconclusive: 89.1 µM [inhibitor, single point] | 
16 | Cc1noc(C)c1COc1ccc(C(=O)N[C@@H]2CN(C(=O)Nc3ccc(F)cc3)CCC[C@H]2O)cc1 |  | inactive: -13.4%
17 | CCCCn1nc(C(=O)Nc2ccc(C)cc2Br)c2ccccc2c1=O |  | inactive: 11%
18 | CC(C)Oc1ccc2ccccc2c1C=O | inconclusive: 7.08 µM [inhibitor, full curve, poor fit] | 
19 | CC(C)(C)c1ccc(OCCSc2nc(-c3cccs3)nc3cc(=O)[nH]n23)cc1 |  | inactive: -18.3%
20 | O=C(c1ccc(-c2ccco2)cc1)N1CCOC(c2ccccc2)C1 (stereo not drawn) | inconclusive: 14.1 µM [inhibitor, full curve, poor fit] | 
21 | CCOC(=O)N1CCN(C(=S)NC(=O)c2cc(Br)ccc2Cl)CC1 |  | inactive: -0.775%
22 | CCOc1ccc(NC(=S)NNC(=O)c2ccc(Br)cc2)cc1 | inconclusive: 50.1 µM [inhibitor, partial curve, poor fit] | 

Row | SMILES | Potency | activity change, negative = inhibition
23 | C[C@H]1[C@@H]2[C@@H](O)C([C@H](C)C(=O)NCc3cccnc3)CC[C@@]2(C)CC[C@@H]1NC(=O)c1ccncc1 (stereo partly drawn) |  | inactive: 41.7%
24 | C#CCn1cc(/C=C2/NC(=O)N(CC)C2=O)c2ccccc21 | inconclusive: 50.1 µM [inhibitor, partial curve, poor fit] | 
25 | CCSc1ccccc1-c1nc(-c2ccncc2)no1 | inconclusive: 100 µM [inhibitor, single point] | 
26 | O=C(CCC1CCN(Cc2ccc(OCCO)cc2)CC1)Nc1ccccc1Cl |  | inactive: 25.2%
27 | O=C(Nc1oc2ccc(Cl)cc2c(=O)c1-c1ccccc1)c1ccco1 | inconclusive: 79.4 µM [inhibitor, single point] | 
28 | CCCCC(=O)Nc1sc(C(=O)N(CC)CC)c(C)c1C(=O)OC | active: 35.5 µM | 
29 | O=C(O)CCCCn1c(SCc2cc(=O)n3cc(Cl)ccc3n2)nc2ccsc2c1=O | inconclusive: 25.1 µM [inhibitor, full curve, poor fit] | 
30 | COc1cc(C(c2c(C)[nH][nH]c2=O)c2c(C)[nH][nH]c2=O)ccc1OC(=O)c1ccccc1F | inconclusive: 79.4 µM [inhibitor, partial curve, poor fit] | 
31 | CC(C)(C)c1ccc(C(=O)COC(=O)c2ccc3ccccc3n2)cc1 | inconclusive: 14.1 µM [inhibitor, full curve, poor fit] | 
32 | COc1ccc(C(=O)COC(=O)COc2ccc(F)cc2Cl)cc1OC |  | inactive: -2.84%
33 | S=c1[nH]nc(Cc2ccccc2)n1Cc1ccco1 | active: 35.5 µM | 
34 | Oc1ccccc1N1CCN(C(=S)NCCc2ccccc2)CC1 | inconclusive: 56.2 µM [inhibitor, partial curve, poor fit] | 
35 | O=C(c1cc(-c2ccccc2F)cc2c1OCCN2Cc1cccnc1)N1CCC1 | inconclusive: 112 µM [inhibitor, partial curve, poor fit] | 
36 | Clc1ccc(CSc2nnc(-c3ccc4c(c3)OCO4)o2)cc1 | inconclusive: 2.51 µM [inhibitor, full curve, poor fit] | 
37 | NS(=O)(=O)c1ccc(N/N=C/C(Br)=C/c2ccccc2)c([N+](=O)[O-])c1 | inconclusive: 11.2 µM [inhibitor, partial curve, poor fit] | 
38 | Cn1cc(C(=O)NC2(C)CCS(=O)(=O)C2)c2ccccc21 (stereo not drawn) | active: 12.6 µM | 
39 | Nc1c(Cl)cc(C2=NCCn3c2c2ccc(C(F)(F)F)cc2[n+]3[O-])cc1Cl |  | inactive: -12.6%
40 | COc1cc(C(=O)Nc2ccccc2N2CCOCC2)ccc1OCc1c(C)noc1C |  | inactive: -27.8%
41 | CN1C(=O)/C(=C/c2cc(N=Nc3ccccc3)ccc2O)SC1=S | inconclusive: 44.7 µM [inhibitor, partial curve] | 
42 | Cc1nc(C)c(C(=O)OC(C)C(=O)C23CC4CC(CC(C4)C2)C3)s1 (stereo not drawn) |  | inactive: 37.5%
43 | Cc1ccc(C)c(C(=O)Nc2ccc(N(C)C)cc2)c1 | inconclusive: 17.8 µM [inhibitor, partial curve, poor fit] | 

Molecules listed so far containing a nitro group on carbon, in the order listed:
Row | SMILES | Potency | activity change, negative = inhibition
7 | O=C(O)c1c2c(nc3ccccc13)/C(=C/c1ccccc1[N+](=O)[O-])CCC2 | inconclusive: 31.6 µM [inhibitor, partial curve, poor fit] | 
13 | C=CCN(CC(O)c1cccc([N+](=O)[O-])c1)C(C)CCc1ccccc1 (stereo not drawn) | inconclusive: 31.6 µM [inhibitor, partial curve, poor fit] | 
37 | NS(=O)(=O)c1ccc(N/N=C/C(Br)=C/c2ccccc2)c([N+](=O)[O-])c1 | inconclusive: 11.2 µM [inhibitor, partial curve, poor fit] | 
